Reference: article doi:10.1101/2022.02.24.481622
Read-outs that look alike come from different tables or passages of the source. No constants are given. Whether binding was seen depends on the method and setting. In cells and extracts the contact can be indirect. Here binding means that the protein was enriched with, or labelled near, the bait; the list need not be complete. A no says only that the protein was not detected with the bait.

Assays:
Assay in all cases: proximity labelling
[1] = biological target: CRMPA-TurboID (TGGT1_261080, TurboID tag) (Toxoplasma gondii (RH strain))
[2] = biological target: CRMPB-TurboID (TGGT1_292020, C-terminal TurboID) (Toxoplasma gondii (RH strain))
[3] = biological target: CRMPB-TurboID (TGGT1_292020, C-terminal TurboID) (Toxoplasma gondii (RH strain)); remark: listed apart in the source

Measured: binding

B1: Mic8 (protein, UniProt Q9BIM7 19-684)
chain: SFLKEMDSIFVSAIRQNVQHTHSALLAKLKEPPDPDDENSWLCRISKKYDACGSREYSDKGLKGTYCPEDFCCSKTACFYGSCGSWCHDNWALCSSSIIYHDEYSYGKCNCKRFQENCDVNAICVHANREDGGAYCQCKEGYWGDGKSCKIDFCQLQPCGAGTCTRTDEGYKCDCPETHKLIVVEDKETCKAKPDFCAEEPCGPPSMVENCVNTDDSYECVCKQGYEVRNGRCEEIDLCADKPCGPDEGVHECVTERQPKLRYRCTCKAGFDLTTLPDGVSQKCLKNFCYEEPCGTRDLVESCKSKAYGYSCLCAAGAMVQVINGKEKCIKADLCRNDPCGPETAVIQCYSHGTSYRCLCKAGYTEVFVNGKSSCQKGDPCTLNMCGGNEAVQECTTDGTAYGCTCKPGYSIAIKHGQKFCNPEEECASHCGSAAAVKSCEILDSGGYQCTCNPGYVMRYSDYVKGCVEGNQCSLNPCGEQEAVQRCIPEGDTYDCECNPGFVKRVLPDGNFICADPASCVGNPCGSSDAVDACIAGTSTYTCRCKDGYTPQSIGSKLQCLPESTDQTDFDSKHKPEDNKGRYSKGTIALVVVGCVALLGIIAGGISYARNRGGERDDEDLAPPPRSTRERRLSSMGEGFENASWASSVSMIPSAPAPPPSGGIWS
no binding: all assays above
